Among all 320,000 compounds or so, about 620 (0.19%) were called active. The inconclusive results got no clear call from the source; some entries with a clear call stand among them for comparison. Rule as the data show it: active = activation above about 80%; inconclusive = between about 30% and that limit; inactive = weaker than that.
molecular target: Transient receptor potential cation channel subfamily V member 1 (Homo sapiens) (UniProt Q8NER1); experiment: HTS Assay for Compounds that Act as Agonists of the Vanilloid Receptor 1; conditions: TRPV1-expressing cells, Fluo-8 calcium influx, agonist mode; at 8.33 µM, hits give high values; also: 0% is about no effect
Method in brief: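 Cells expressing TRPV1 were dye-loaded with Fluo-8 and read kinetically: 10 s baseline, 3 min after compound (agonist portion), then 2 min after EC20 capsaicin (allosteric enhancer portion). Calcium-bound dye fluorescence at 480/520 nm.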

Sequences of proteins named here, by UniProt entry; tags and fusion partners are left off.
UniProt Q8NER1, whole entry, looked up: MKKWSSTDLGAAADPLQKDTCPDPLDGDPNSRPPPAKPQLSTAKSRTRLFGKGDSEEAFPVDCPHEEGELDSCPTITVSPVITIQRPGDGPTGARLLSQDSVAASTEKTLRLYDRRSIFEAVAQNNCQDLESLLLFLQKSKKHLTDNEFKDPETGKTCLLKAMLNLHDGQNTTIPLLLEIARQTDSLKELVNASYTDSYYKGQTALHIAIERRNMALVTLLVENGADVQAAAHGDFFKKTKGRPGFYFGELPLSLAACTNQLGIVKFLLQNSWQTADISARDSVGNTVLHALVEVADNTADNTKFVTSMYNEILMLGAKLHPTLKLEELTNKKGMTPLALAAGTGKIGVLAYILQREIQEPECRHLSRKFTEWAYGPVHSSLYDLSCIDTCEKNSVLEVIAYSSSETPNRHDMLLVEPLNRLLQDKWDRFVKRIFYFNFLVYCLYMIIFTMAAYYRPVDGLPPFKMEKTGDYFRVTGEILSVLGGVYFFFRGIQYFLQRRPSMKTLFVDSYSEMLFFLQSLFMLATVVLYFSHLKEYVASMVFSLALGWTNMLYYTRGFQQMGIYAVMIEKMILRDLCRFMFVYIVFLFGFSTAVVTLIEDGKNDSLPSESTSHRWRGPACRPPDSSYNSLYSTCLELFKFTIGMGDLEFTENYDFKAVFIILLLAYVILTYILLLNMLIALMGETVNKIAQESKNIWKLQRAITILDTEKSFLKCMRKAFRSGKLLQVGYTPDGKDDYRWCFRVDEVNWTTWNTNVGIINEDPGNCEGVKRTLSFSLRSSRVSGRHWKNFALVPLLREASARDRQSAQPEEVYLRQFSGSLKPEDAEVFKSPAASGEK

SMILES | activation
CC(=O)Nc1c(C(=O)Nc2ccc3c(c2)OCO3)oc2ccccc12 | inconclusive: 67.4%
Cc1cc(C(=O)CN2C(=O)NC(CC(C)C)C2=O)c(C)n1-c1ccccc1F (stereo unspecified) | inconclusive: 33.4%
CCOc1ccc(CNC(=S)Nc2ccccc2)cc1Cl | inconclusive: 71.2%
CC1CCN(C(=O)CSc2ccc(-c3ccccc3)nn2)CC1 | inconclusive: 38.2%
O=C(NCc1ccccc1)C1=C[C@@H](c2csc3ccccc23)C[C@@H](OCCCCO)O1 | inconclusive: 41%
O=C(CSc1ccc(Cl)cc1)N1CCN(c2ncc(C(F)(F)F)cc2Cl)CC1 | inconclusive: 41.5%
Cn1cnnc1SCc1ccc(-c2ccc(Br)cc2)o1 | inconclusive: 34.5%
NNC(=O)c1ccc([N+](=O)[O-])c(CS(=O)(=O)c2ccc(Cl)cc2)c1 | inactive: -4.3%
Fc1ccc(-n2nnc(-c3ccnc4ccccc34)n2)cc1 | inactive: -0.509%
Cn1nccc1C(=O)Nc1ccn(C23CC4CC(CC(C4)C2)C3)n1 | inconclusive: 53.6%
C=CCOc1c(Br)cc(CNc2ccc3[nH]c(=O)[nH]c3c2)cc1OCC | active: 86.8%
CCn1c2ccccc2c2cc(NC(=O)c3cc(C)on3)ccc21 | inconclusive: 37.5%
COc1ccc(-c2nc3ccccc3n2Cc2ccc(C)cc2)cc1 | inconclusive: 35.3%
O=C(NCC1CCCO1)c1ccc2c(c1)N(Cc1ccc(F)cc1Cl)C(=O)CS2 (stereo unspecified) | inconclusive: 53%
c1ccc(-c2noc(-c3ccco3)n2)nc1 | inactive: 0.845%
C=CCn1c(SCC(=O)NC2CCS(=O)(=O)C2)nnc1-c1ccc(Cl)cc1 (stereo unspecified) | inactive: -0.676%
COc1ccc(S(=O)(=O)Nc2cc3c(C(C)=O)c(C)oc3c3ccccc23)cc1 | inconclusive: 37.9%
O=C(NC1CCCc2ccccc21)c1ccc(=O)[nH]c1 (stereo unspecified) | inactive: 2.41%
COc1cccc(/C=N/NC(=O)CSc2cccc3cccnc23)c1 | inactive: -2.4%
O=C(Cc1ccc(Br)cc1)NCc1ccccc1 | inconclusive: 41.6%
Cc1ccc(CC(=O)N2CCN(c3ccccn3)CC2)cc1 | inactive: -10.9%
O=C(CN1CCN(Cc2ccc3c(c2)OCO3)CC1)N1CCc2[nH]c3ccc(F)cc3c2C1 | inconclusive: 39.6%
COc1ccc(C(=O)NC(=S)NNC(=O)c2ccncc2)cc1Br | inactive: -0.21%
CCCc1cc(=O)[nH]c(N/N=C/C=C\c2ccccc2)n1 | inactive: 1.08%
O=C(Nc1ccc(F)cc1)C1COc2ccccc2O1 (stereo unspecified) | inconclusive: 52.7%
Cc1ccc(F)c([C@H]2[C@H]3C=CC[C@@H](C)[C@@H]3C(=O)N2Cc2ccccc2)c1 | inconclusive: 64.8%

For convenience, some entries already given:
SMILES | activation
O=C(CN1CCN(Cc2ccc3c(c2)OCO3)CC1)N1CCc2[nH]c3ccc(F)cc3c2C1 | inconclusive: 39.6%
COc1ccc(C(=O)NC(=S)NNC(=O)c2ccncc2)cc1Br | inactive: -0.21%
